Laboratory results from PubChem BioAssay AID485353 (National Center for Advancing Translational Sciences (NCATS), 2010).
Screen size: about 330,000 compounds; about 610 (0.18%) were called active. Inconclusive results, whose numbers are uncertain, are shown with a selection of clear calls. Calls come from the whole dose curve. A potency beside an inconclusive call is a rough fit, not a confirmed value.

experiment: qHTS of Yeast-based Assay for SARS-CoV PLP; note: nearly all actives have a fitted effect of over 55% in size; conditions: S. cerevisiae expressing SARS-CoV PLpro; Potency: growth rescue; series mostly up to 32.9 µM
Potency is the fitted concentration of half-maximal effect.

Row | SMILES | Potency
1 | O=C1CCC(=O)N1CC(O)COc1ccccc1 (stereo not drawn) | inactive
2 | Cc1cc2c(cc1S(=O)(=O)Nc1cccc(C)c1C)OCC(=O)N2 | inconclusive: 2.82 µM [activator, single point]
3 | O=C(NN=C1CCN(Cc2ccccc2)CC1)c1ccccc1O | inconclusive: 10 µM [activator, partial curve]
4 | NC(=O)c1ccsc1NC(=O)Cc1ccc([N+](=O)[O-])cc1 | inactive
5 | Cc1nn(-c2ccccc2)c(C)c1/C=N/NC(=O)c1cc(O)cc(O)c1 | inconclusive: 1 µM [activator, full curve]
6 | O=c1cc(CO)oc(C(Nc2ccccn2)c2ccccc2Cl)c1O (stereo not drawn) | active: 12.6 µM
7 | OCC1(CCOc2ccccc2)CCN(Cc2ccccc2OC(F)F)CC1 | inconclusive: 20 µM [activator, single point]
8 | O=C(NCCn1ccc2ccccc21)C1CCCCC1 | inconclusive: 10 µM [activator, partial curve]
9 | Cc1ccc(C)c(OCc2cc(C(=O)N3C[C@@H](C)O[C@@H](C)C3)no2)c1 | inconclusive: 5.62 µM [activator, partial curve]
10 | Cc1csc(Cn2c(CN(C)C)nc3ccccc3c2=O)n1 | inactive
11 | CC(C)c1ccc2[nH]c(O)c(N=NC(=S)NCCc3ccccc3)c2c1 | inconclusive: 22.4 µM [activator, partial curve, poor fit]
12 | Cc1ccc(N/N=C/c2ccncc2)cc1 | inactive
13 | COc1ccc(CCC(=O)NCCCNC(=O)CCc2ccc(OC)cc2)cc1 | inconclusive: 2.51 µM [activator, partial curve]
14 | CCN(CC)S(=O)(=O)c1ccc(/C=C/C(=O)OCC(=O)N(C(C)C)C(C)C)cc1 | inactive
15 | C#CCCC(=O)c1ccccc1/C=[N+](\[O-])c1ccccc1 | inactive
16 | CC(=O)Nc1ccc(OCC(=O)NCCc2ccc(Cl)cc2)cc1 | inconclusive: 1 µM [activator, partial curve]
17 | Cc1ccc(OCC(=O)NC(=S)Nc2ccccn2)c(Br)c1 | inconclusive: 20 µM [activator, single point]
18 | Cc1[nH]c(=O)[nH]c(=O)c1/C=N/NC(=O)[C@H](C)N | inactive
19 | CNc1nc(SCC(=O)Nc2ccc(Cl)c(Cl)c2)nc(N2CCOCC2)n1 | inconclusive: 0.631 µM [activator, full curve]
20 | Cc1c(C)c2cc(Cl)c(OCC(=O)NCCCn3ccnc3)cc2oc1=O | inconclusive: 3.98 µM [activator, single point]
21 | CC(=O)N(C(C)=O)S(=O)(=O)c1ccc(N=NN2CCOCC2)cc1 | inconclusive: 22.4 µM [activator, single point]
22 | O=C(NCc1cccnc1)C(=O)NCC1OCCCN1S(=O)(=O)c1ccc(F)cc1 (stereo not drawn) | inconclusive: 0.398 µM [activator, full curve]
23 | CCOc1ccccc1-c1cc(C(=O)N/N=C/c2ccc(O)c(OC)c2)c2ccccc2n1 | inconclusive: 4.47 µM [activator, partial curve]
24 | O=C(NC(=S)Nc1ccccn1)c1ccco1 | active: 3.16 µM

Given comma-delimited: 2 of the compounds above.
Row,SMILES,Potency
8,O=C(NCCn1ccc2ccccc21)C1CCCCC1,"inconclusive: 10 µM [activator, partial curve]"
9,Cc1ccc(C)c(OCc2cc(C(=O)N3C[C@@H](C)O[C@@H](C)C3)no2)c1,"inconclusive: 5.62 µM [activator, partial curve]"

Next results follow.

Row | SMILES | Potency
25 | COc1ccc(C(=O)Nc2ccc(C(=O)Nc3nccs3)cc2)cc1[N+](=O)[O-] | inconclusive: 4.47 µM [activator, single point]
26 | COc1ccccc1C1CC(=O)Oc2cc(C)c(Cl)c(C)c21 (stereo not drawn) | inconclusive: 0.398 µM [activator, full curve, poor fit]
27 | COCCN(C(=O)c1ccccc1OC)c1nnc(C)s1 | inactive
28 | Cn1cnc([N+](=O)[O-])c1Oc1cccc2ccccc12 | inconclusive: 10 µM [activator, single point]
29 | O=C(O)CC1(CC(=O)N2CCOCC2)CCCC1 | inactive
30 | Cc1cc([N+](=O)[O-])nn1CC(=O)N1CCCc2ccccc21 | active: 15.8 µM
31 | Cc1ccc(CN2CCN(/N=C/c3ccc(C(F)(F)F)cc3)CC2)c(C)c1 | inconclusive: 4.47 µM [activator, single point]
32 | O=C(O)c1cc(=O)c2ccccc2o1 | inconclusive: 0.708 µM [activator, full curve]
33 | O=C(COc1coc(CN2CCN(c3cccc(Cl)c3)CC2)cc1=O)NC1CCCC1 | inactive
34 | Cc1cccc(NC(=O)C(C)C(=O)c2ccccc2)c1 (stereo not drawn) | inconclusive: 3.98 µM [activator, single point]
35 | Nc1ccc(NC(=O)c2ccc(C(=O)Nc3ccc(N)cc3)cc2)cc1 | inactive
36 | C(=C1/CCCC2=C1Nc1ncnn1C2c1ccccc1)/c1ccccc1 (stereo not drawn) | inconclusive: 12.6 µM [activator, partial curve]
37 | COc1ccc(OC)c(NS(=O)(=O)c2ccc3c(c2)C(C)(C)C(=O)N3C)c1 | inconclusive: 4.47 µM [activator, single point]
38 | Cn1c(-c2cc3c(C(F)(F)F)nn(C)c3s2)n[nH]c1=S | inconclusive: 20 µM [activator, single point]
39 | Cc1cccc2cc(COC(=O)c3cccs3)c(=O)[nH]c12 | active: 3.16 µM
40 | Cc1ccc2cc(C3CC(c4ccco4)=NN3C(=O)CCCC(=O)O)c(Cl)nc2c1 (stereo not drawn) | inactive
41 | O=C(COC(=O)c1cccnc1Cl)NC(=O)NC1CCCCC1 | inconclusive: 20 µM [activator, single point]
42 | COc1ccc(NC2CCCN(C(=O)CCC(=O)c3ccc(F)cc3)C2)cc1 (stereo not drawn) | inactive
43 | COc1ccc(N2CCN(C(=O)c3cc(-c4cc(OC)ccc4OC)nc4ccccc34)CC2)cc1 | inactive
44 | CC(=O)NS(=O)(=O)c1ccc(N=NN2CCCCC2)cc1 | inconclusive: 11.2 µM [activator, single point]
45 | N#CC1=C(N)OC2=C(C(=O)CC(c3ccccc3)C2)C1c1ccoc1 (stereo not drawn) | inconclusive: 12.6 µM [activator, partial curve]
46 | CCOc1cc(/C=N/O)ccc1OCc1ccccc1F | inconclusive: 20 µM [activator, single point]
47 | O=C(O)C1=C[C@H](c2ccc(C(F)(F)F)cc2)C[C@H](OCc2ccc(CO)cc2)O1 | inactive
48 | O=C(N/N=C/c1c(O)n(CCc2ccccc2)c(=O)[nH]c1=O)c1ccccc1O | active: 2.24 µM
